This passage reports TEAD-luciferase reporter activity results from the supplement of paper PMC10735217.

Molecules are shown by their SMILES. Structures can show the parent of a compound that is named as a salt. Some of the results follow. This data set is noisy: repeats of one test often differ as much as different tests do.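 In a drug-repurposing library screen, luminescence reads luciferase driven by eight TEAD-binding elements, stably integrated into human kidney-derived cells. Compounds scoring over five robust Z scores above the plate mean are called hits.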

For this experiment, the system named is HEK293A TEAD-LUC reporter. The experiment in a line: TEAD-luciferase reporter activity (YAP activation), robust Z score vs plate; higher = stronger YAP/TEAD activation. The conditions noted are these: 24 h.

Turning to `Cc1nc(C)c(C(=O)Nc2ccc(F)c(-c3nc4ncc(-c5ccccn5)cn4n3)c2)o1`, the TEAD-luciferase reporter activity was inactive: -0.656 (compound concentration: 200 nM), inactive: 0.279 (compound concentration: 2 uM) and inactive: -1.39 (compound concentration: 10 uM).

For the compound `COc1cc2c(NCCCCCO[N+](=O)[O-])ncnc2c(OC)c1OC`, the TEAD-luciferase reporter activity (compound concentration: 200 nM) is inactive: 0.545, the TEAD-luciferase reporter activity (compound concentration: 2 uM) is inactive: 0.573 and the TEAD-luciferase reporter activity (compound concentration: 10 uM) was inactive: 3.65.

Regarding `CC(=O)NCCNC(=N)NN`, the TEAD-luciferase reporter activity was inactive: -1.07 (compound concentration: 200 nM), inactive: -0.44 (compound concentration: 2 uM) and inactive: 0.925 (compound concentration: 10 uM).

Consider `CN[C@H]1C(=O)N[C@@H]2Cc3ccc(cc3)Oc3cc4cc(c3O[C@@H]3O[C@H](C(=O)O)[C@@H](O)[C@H](O)[C@H]3NC(=O)CCCCCCCCC(C)C)Oc3ccc(cc3Cl)[C@@H](O)[C@@H]3NC(=O)[C@H](NC(=O)[C@@H]4NC(=O)[C@@H](NC2=O)c2cc(cc(O)c2Cl)Oc2cc1ccc2O)c1ccc(O)c(c1)-c1c(O[C@H]2O[C@H](CO)[C@@H](O)[C@H](O)[C@@H]2O)cc(O)cc1[C@@H](C(=O)NCCCN(C)C)NC3=O` [Dalbavancin], for which the TEAD-luciferase reporter activity (compound concentration: 200 nM) is inactive: -0.745, the TEAD-luciferase reporter activity (compound concentration: 2 uM) was inactive: -0.935 and the TEAD-luciferase reporter activity (compound concentration: 10 uM) is inactive: 0.824.

For `CC12CCC(C(S(=O)(=O)O)C1=O)C2(C)C` (stereo not given), the TEAD-luciferase reporter activity is inactive: 0.787 (compound concentration: 200 nM), inactive: -0.465 (compound concentration: 2 uM) and inactive: -0.512 (compound concentration: 10 uM).

With `COc1ccc2c(c1)CC(CO)O2` (stereo not given), the TEAD-luciferase reporter activity by setting is: (compound concentration: 200 nM) inactive: -1.97; (compound concentration: 2 uM) inactive: 1.65; (compound concentration: 10 uM) inactive: -0.383.

Regarding `CCN(CC)c1ccc(NC(=O)c2ccccc2N)c(C)c1`, the TEAD-luciferase reporter activity reads like this: (compound concentration: 200 nM) inactive: -1.43; (compound concentration: 2 uM) inactive: -0.677; (compound concentration: 10 uM) inactive: -0.514.

`CCOC(=O)[C@H](Cc1ccccc1)NC(=O)c1cc(Cl)c(OCCN2CCN(C)CC2)c(Cl)c1O`: the TEAD-luciferase reporter activity (compound concentration: 200 nM) is inactive: -0.999, the TEAD-luciferase reporter activity (compound concentration: 2 uM) was inactive: -1.68 and the TEAD-luciferase reporter activity (compound concentration: 10 uM) is inactive: 4.38.

In the case of `CC(Cc1ccc(O)c(O)c1)C(C)Cc1ccc(O)c(O)c1` (stereo not given) [Masoprocol], where the note is “compound concentration: 2 uM”, the TEAD-luciferase reporter activity was inactive: -0.0431.

As for `CC(Cc1ccc(O)c(O)c1)C(C)Cc1ccc(O)c(O)c1` (stereo not given) [Nordihydroguaiaretic acid], the TEAD-luciferase reporter activity reads like this: (compound concentration: 200 nM) inactive: 0.551; (compound concentration: 10 uM) active: 6.12.

Take `CCOC(=O)c1ccccc1OC(=O)CCCCCCCC(=O)Oc1ccccc1C(=O)OCC`: the TEAD-luciferase reporter activity is inactive: 1.76 (compound concentration: 200 nM), inactive: -1.97 (compound concentration: 2 uM) and inactive: 0.0155 (compound concentration: 10 uM).

For `[O]=[W](=[O])([OH])[OH]` [Sodium tungstate dihydrate], the TEAD-luciferase reporter activity runs as follows: (compound concentration: 200 nM) inactive: -0.668; (compound concentration: 2 uM) inactive: 0.248; (compound concentration: 10 uM) inactive: -0.317.

Consider `O=c1c2c(c1=O)N(CCP(=O)(O)O)CCCN2` [Perzinfotel], for which the TEAD-luciferase reporter activity is, setting by setting: (compound concentration: 200 nM) inactive: -0.535; (compound concentration: 2 uM) inactive: -0.397; (compound concentration: 10 uM) inactive: 0.232.

As to `C#Cc1cccc(-c2cc(=O)n(C)c3ccc(C(O)(c4ccc(Cl)cc4)c4cncn4C)cc23)c1` (stereo not given), the TEAD-luciferase reporter activity is, setting by setting: (compound concentration: 200 nM) inactive: -1.06; (compound concentration: 2 uM) inactive: -0.392; (compound concentration: 10 uM) inactive: 0.796.

As for `CCOc1ccc(S(=O)(=O)Nc2ncccn2)cc1`, the TEAD-luciferase reporter activity is inactive: 2.45 (compound concentration: 200 nM), inactive: -0.893 (compound concentration: 2 uM) and inactive: -1.49 (compound concentration: 10 uM).

For `[CH3][Co+][N]1/C2=C(/C)C3=N/C(=C\C4=NC(=C(/C)C5=N[C@H]([C@H](CC(N)=O)[C@@]5(C)CCC(=O)NCC(C)OP(=O)([O-])O[C@H]5[C@@H](O)[C@@H](n6cnc7cc(C)c(C)cc76)O[C@@H]5CO)[C@@]1(C)[C@@](C)(CC(N)=O)[C@@H]2CCC(N)=O)/[C@@H](CCC(N)=O)C4(C)C)[C@@H](CCC(N)=O)[C@]3(C)CC(N)=O` (stereo not given in full) [Mecobalamin], the TEAD-luciferase reporter activity is inactive: -1.06 (compound concentration: 200 nM), inactive: -2.19 (compound concentration: 2 uM) and inactive: -2.23 (compound concentration: 10 uM).

`COCCn1c(N[C@@H](CO)c2ccc(OC)c(OC)c2)nc2c1c(=O)n(C)c(=O)n2C`: the TEAD-luciferase reporter activity is, setting by setting: (compound concentration: 200 nM) inactive: -0.473; (compound concentration: 2 uM) inactive: 0.111; (compound concentration: 10 uM) active: 5.22.

Turning to `Oc1ccc(C2COc3cc(O)ccc3C2)cc1` (stereo not given), the TEAD-luciferase reporter activity is inactive: -0.554 (compound concentration: 200 nM), inactive: 4.41 (compound concentration: 2 uM) and inactive: 0.96 (compound concentration: 10 uM).

As to `O=C(OCCCc1ccccc1)c1ccccc1`, the TEAD-luciferase reporter activity was inactive: 0.556 (compound concentration: 200 nM), inactive: -1.29 (compound concentration: 2 uM) and inactive: -0.207 (compound concentration: 10 uM).

With `Nc1ncc(-c2ccccc2Cl)c(N)n1`, the TEAD-luciferase reporter activity is inactive: 0.543 (compound concentration: 200 nM), inactive: -0.434 (compound concentration: 2 uM) and inactive: -0.243 (compound concentration: 10 uM).

In the case of `Cc1nc2ccc(CCCNC(=O)C3(CC(C)C(=O)O)CCCC3)cc2s1` (stereo not given), the TEAD-luciferase reporter activity reads like this: (compound concentration: 200 nM) inactive: -0.756; (compound concentration: 2 uM) inactive: 0.214; (compound concentration: 10 uM) inactive: 1.04.

`O=C(CN1CCNCC1)NC1CCCCC1` [Esaprazole hydrochloride]: the TEAD-luciferase reporter activity was inactive: 0.35 (compound concentration: 200 nM), inactive: -0.586 (compound concentration: 2 uM) and inactive: -1.21 (compound concentration: 10 uM).

`CC(C)OCOCCCOn1cnc2cnc(N)nc21`: the TEAD-luciferase reporter activity reads like this: (compound concentration: 200 nM) inactive: -1.4; (compound concentration: 2 uM) inactive: 0.346; (compound concentration: 10 uM) inactive: 2.99.

Take `Cc1cc2nc3c4ccccc4n(CCN(C)C)c3nc2cc1C`: the TEAD-luciferase reporter activity (compound concentration: 200 nM) is inactive: 0.336, the TEAD-luciferase reporter activity (compound concentration: 2 uM) is inactive: 1.46 and the TEAD-luciferase reporter activity (compound concentration: 10 uM) was active: 9.54.

As for `Cc1c(N2CC(NC(C)C)C2)c(F)cc2c(=O)c(C(=O)O)cn(-c3nc(N)c(F)cc3F)c12`, the TEAD-luciferase reporter activity is inactive: 2.05 (compound concentration: 200 nM), inactive: -0.658 (compound concentration: 2 uM) and inactive: -1.15 (compound concentration: 10 uM).

As for `CCc1nc2c(C)nc(C)cc2n1-c1ccc(CCNC(=O)NS(=O)(=O)c2ccc(C)cc2)cc1`, the TEAD-luciferase reporter activity is inactive: -0.232 (compound concentration: 200 nM), inactive: -1.65 (compound concentration: 2 uM) and inactive: 1.88 (compound concentration: 10 uM).
